The target of this data set is T1, human RNase H1 (Homo sapiens) (UniProt O60930).
T1 sequence (looked up, limits assumed): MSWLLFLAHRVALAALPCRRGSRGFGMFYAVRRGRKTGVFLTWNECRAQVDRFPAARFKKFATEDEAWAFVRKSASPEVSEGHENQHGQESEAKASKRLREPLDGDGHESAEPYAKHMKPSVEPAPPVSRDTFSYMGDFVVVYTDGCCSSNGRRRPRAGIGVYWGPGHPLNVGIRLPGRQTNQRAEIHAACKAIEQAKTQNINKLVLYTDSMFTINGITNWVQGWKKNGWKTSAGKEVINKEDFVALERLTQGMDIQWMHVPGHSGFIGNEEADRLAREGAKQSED
As to the kind of experiment: enzyme reaction in vitro. As to conditions: 1 mM MgCl2, 37 C, purified recombinant protein, protein details: N-terminal His-tag, expressed in E. coli BL21(DE3), label: 5'-32P on RNA, DNA:RNA hybrid.

Data on 34 sequences can be found in patent US20150011001.

The exact form of at least one protein or probe is not confirmed. The direction of at least one scale is not stated here. Protein sequences can lack the tags named with them.

In the case of AGTTTAGGTCTCCGATCGTC [ISIS 359469], where the note is “2'-MOE at 1-5 and 16-20, tetrafluoroindole at 5”, the activity signal (ratio V0 modified/unmodified) was 0.77. In the case of AGTTTAGGTCTCCGATCGTC [ISIS 359470], the activity signal (ratio V0 modified/unmodified) (2'-MOE at 1-5 and 17-20, tetrafluoroindole at 16) was 1.69. For AGTTTAGGTCTCCGATCGTC [ISIS 359471], the activity signal (ratio V0 modified/unmodified) (2'-MOE at 1-5 and 16-20, tetrafluoroindole at 15) is 0.88. On to AGTTTAGGTCTCCGATCGTC [ISIS 359473], for which the activity signal (ratio V0 modified/unmodified) (2'-MOE at 1-5 and 16-20, tetrafluoroindole at 6) worked out at 1.93. As for AGTTTAGGTCTCCGATCGTC [ISIS 366694], the activity signal (ratio V0 modified/unmodified) (2'-MOE at 1-5 and 16-20, 2,3,4,5-tetrafluorophenyl at 5) is 1.49. In the case of AGTTTAGGTCTCCGATCGTC [ISIS 366695], the activity signal (ratio V0 modified/unmodified) (2'-MOE at 1-5 and 16-20, 2,3,4,5-tetrafluorophenyl at 6) came out at 1.35. AGTTTAGGTCTCCGATCGTC [ISIS 366696]: the activity signal (ratio V0 modified/unmodified) (2'-MOE at 1-5 and 16-20, tetrafluoroindole at 4, vs unmodified MOE gapmer) amounted to 1.23. As for AGTTTAGGTCTCCGATCGTC [ISIS 366697], under “2'-MOE at 1-5 and 16-20, tetrafluoroindole at 7”, the activity signal (ratio V0 modified/unmodified) turned out to be 2.02.

For AGTTTAGGTCTCCGATCGTC [ISIS 366698], the activity signal (ratio V0 modified/unmodified) (2'-MOE at 1-5 and 16-20, tetrafluoroindole at 8) worked out at 1.09.

Regarding AGTTTAGGTCTCCGATCGTC [ISIS 366699], the activity signal (ratio V0 modified/unmodified) (2'-MOE at 1-5 and 16-20, tetrafluoroindole at 17) came to 1.06. As to AGTTTAGGTCTCCGATCGTC [ISIS 366700], under “2'-MOE at 1-5 and 16-20, tetrafluoroindole at 14”, the activity signal (ratio V0 modified/unmodified) stood at 0.66. As for AGTTTAGGTCTCCGATCGTC [ISIS 366701], the activity signal (ratio V0 modified/unmodified) (2'-MOE wings (printed as 1-4 and 16-20), tetrafluoroindole labelled C13 (printed x)) worked out at 1.48.

Consider AGTTTAGGTCTCCGATCGTC [ISIS 366702], for which, under “2'-MOE at 1-5 and 17-20, tetrafluoroindole at 6 and 16”, the activity signal (ratio V0 modified/unmodified) was determined as 1.5. As to CTACGCTTTCCACGCACAGT [A12 4-Me-ben], the activity signal (ratio V0 modified/unmodified) (4-methylbenzoimidazole at position 12 of DNA strand) was 0.8. For CTACGCTTTCCACGCACAGT [A12 THF], the activity signal (ratio V0 modified/unmodified) (tetrahydrofuran at position 12 of DNA strand) turned out to be 0.4. Regarding CTACGCTTTCCACGCACAGT [A12 butyl], the activity signal (ratio V0 modified/unmodified) (butyl linker replacing position 12 of DNA strand) worked out at 0.5.

With CTACGCTTTCCACGCACAGT [A12 pentyl], the activity signal (ratio V0 modified/unmodified) (pentyl linker replacing position 12 of DNA strand) amounted to 0.6. CTACGCTTTCCACGCACAGT [A12 propyl]: under “propyl linker replacing position 12 of DNA strand”, the activity signal (ratio V0 modified/unmodified) is 0.5.

As to “CTACGCTTTCCACGCACAGT [C10 2'-ara-fluoro]”, the activity signal (ratio V0 modified/unmodified) (2'-ara-fluoro at position 10 of DNA strand) is 1.2. As to CTACGCTTTCCACGCACAGT [C10 2,4-F-tolyl], the activity signal (ratio V0 modified/unmodified) (2,4-difluorotoluoyl at position 10 of DNA strand) came out at 0.9.

In the case of CTACGCTTTCCACGCACAGT [C10 abasic], the activity signal (ratio V0 modified/unmodified) (abasic at position 10 of DNA strand) stood at 0.6. On to CTACGCTTTCCACGCACAGT [C11 2,4-F-tolyl], for which the activity signal (ratio V0 modified/unmodified) (2,4-difluorotoluoyl at position 11 of DNA strand) is 1.1.

Consider CTACGCTTTCCACGCACAGT [C11 abasic], for which the activity signal (ratio V0 modified/unmodified) (abasic at position 11 of DNA strand) turned out to be 0.5. Regarding “CTACGCTTTCCACGCACAGT [C13 2'-ara-fluoro]”, the activity signal (ratio V0 modified/unmodified) (2'-ara-fluoro at position 13 of DNA strand) was found to be 1.1.

“CTACGCTTTCCACGCACAGT [C15 2'-ara-fluoro]”: the activity signal (ratio V0 modified/unmodified) (2'-ara-fluoro at position 15 (as labelled) of DNA strand) was 1.1.

As for CTACGCTTTCCACGCACAGT [C15 butyl], the activity signal (ratio V0 modified/unmodified) (butyl linker replacing position 15 (as labelled) of DNA strand) turned out to be 0.5. Take CTACGCTTTCCACGCACAGT [C15 pentyl]: the activity signal (ratio V0 modified/unmodified) (pentyl linker replacing position 15 (as labelled) of DNA strand) was found to be 0.5. For CTACGCTTTCCACGCACAGT [C15 propyl], the activity signal (ratio V0 modified/unmodified) (propyl linker replacing position 15 (as labelled) of DNA strand) was 0.5. For CTACGCTTTCCACGCACAGT [G14 F-Me-ben], the activity signal (ratio V0 modified/unmodified) (2-fluoro-6-methylbenzoimidazole (table prints 4-F-6-Me-ben) at position 14 of DNA strand) amounted to 0.8. CTACGCTTTCCACGCACAGT [G14 THF]: the activity signal (ratio V0 modified/unmodified) (tetrahydrofuran at position 14 of DNA strand) stood at 0.4. Turning to CTACGCTTTCCACGCACAGT [G14 ganciclovir], under “ganciclovir at position 14 of DNA strand”, the activity signal (ratio V0 modified/unmodified) worked out at 0.4. Take CTACGCTTTCCACGCACAGT [G14 propyl]: the activity signal (ratio V0 modified/unmodified) (propyl linker replacing position 14 of DNA strand) turned out to be 0.6. For the sequence CTACGCTTTCCACGCACAGT [T7 2'-F], the activity signal (ratio V0 modified/unmodified) (2'-fluorothymidine at position 7 of DNA strand) amounted to 0.6. Turning to CTACGCTTTCCACGCACAGT [T7 2'-S-methyl], the activity signal (ratio V0 modified/unmodified) (2'-methylthiothymidine at position 7 of DNA strand) stood at 0.5.
